A short description of the experiment: qHTS Assay for Modulators of Lamin A Splicing. The conditions noted are these: HeLa LMNA splicing GFP/RFP minigene ratio, 48 h. In a few lines: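 Read-out is the ratio of GFP to DsRed2 object intensity, acquired by 488 nm laser-scanning cytometry on HeLa lamin A-EGFP minigene reporter cells. Compound incubation 48 hrs at 37 °C in Opti-MEM with 2% FBS; DMSO 0.5% final.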
A general note: In qHTS, concentration-response curves come from the screen itself.

[1] abbreviates: measured here: GFP splicing reporter channel.
[2] abbreviates: measured here: RFP viability control channel.

Among the data in PubChem BioAssay AID1487 (National Center for Advancing Translational Sciences (NCATS), 2009) are AC50 values, retold here.

Some of the results follow. Further columns of the screen follow, without active or inactive calls. Compounds called inactive in the main read-out are mostly missing here. Potencies come from curve fits of mixed quality, noted in brackets.

Regarding `CC(C)CCNC(=O)CN1C(=O)CSc2ccc(S(=O)(=O)N3CCCCC3)cc21`, the half-maximal activity concentration (AC50) under setting [1] is 20 µM [falling, partial curve, poor fit] and the AC50 under setting [2] is 35.5 µM [falling, single point]. As for `CCOc1ccc(CCNC(=O)c2ccc(N3CCCC3=O)cc2)cc1OCC`, under setting [2], the half-maximal activity concentration (AC50) is 14.1 µM [rising, single point]. Consider `Cc1cccc(NC(=O)N2CCCC2C(=O)Nc2ccccc2)c1` (stereo unspecified), for which the AC50 under setting [1] was 0.0224 µM [rising, full curve, poor fit].

Regarding `C/C(=C\C(=O)c1ccc(Br)cc1)N1CCCCC1`, the half-maximal activity concentration (AC50) under setting [2] is 35.5 µM [rising, single point]. Consider `CCCn1c2ccccc2c2cnn(CC(=O)N(CCCOC)Cc3ccco3)c(=O)c21`, for which the AC50 under setting [1] is 0.0224 µM [falling, full curve, poor fit]. `O=C1CC(c2ccc(O)cc2)Oc2ccccc21` (stereo unspecified): the AC50 under setting [1] is 20 µM [falling, partial curve, poor fit]. With `CSc1nsc2nc(=O)c(/C=C3\C=Nc4ccccc43)c(N)n12`, under setting [2], the AC50 was 5.62 µM [falling, single point]. On to `Cc1cc(/C=C2/SC(=O)N(CC(=O)OC(C)C)C2=O)c(C)n1C`, for which the half-maximal activity concentration (AC50) reads like this: under setting [1], 15.8 µM [rising, single point]; under setting [2], 31.6 µM [rising, single point].

In the case of `CCOc1ccc(C(=O)Nc2ccc(NC(=O)c3ccco3)c(Cl)c2)cc1Br`, the AC50 under setting [2] is 11.2 µM [falling, partial curve]. For `O=C(CCCN1C(=O)c2cccc3cccc(c23)C1=O)N1CCN(c2ccccn2)CC1`, under setting [1], the AC50 was 11.2 µM [rising, partial curve]. For the compound `CC(CO)NCC12CC3CC(CC(C3)C1)C2` (stereo unspecified), the AC50 under setting [1] is 22.4 µM [rising, partial curve, poor fit]. Consider `Fc1ccc(Nc2nc3ccccc3s2)cc1`, for which, under setting [1], the AC50 is 0.794 µM [falling, full curve, poor fit].

For the compound `CC1(C)CC(=O)C(C(C2=C(O)CC(C)(C)CC2=O)c2ccc(Br)s2)C(=O)C1` (stereo unspecified), the AC50 under setting [1] is 35.5 µM [falling, single point]. With `CCOC(=O)Nc1ccc2c(c1)Nc1ccccc1S2`, the half-maximal activity concentration (AC50) under setting [2] is 15.8 µM [rising, single point]. With `FC(F)(F)c1cccc(NC(=S)N2CCN(c3cccc(C(F)(F)F)c3)CC2)c1`, the AC50 is 17.8 µM [rising, partial curve, poor fit] under setting [1] and 15.8 µM [rising, partial curve] under setting [2]. For the compound `COc1ccc2[nH]c(=O)c(CN(Cc3cccs3)S(=O)(=O)c3cccc4nsnc34)cc2c1`, under setting [2], the concentration at half-maximal activity (AC50) was 3.16 µM [rising, full curve, poor fit]. In the case of `Cc1cc(=O)[nH]c(SCC(=O)Nc2cccc3ccccc23)c1C#N`, the concentration at half-maximal activity (AC50) by setting is: under setting [1], 35.5 µM [rising, single point]; under setting [2], 35.5 µM [rising, single point]. Regarding `O=C(CSc1nc2ccc(Cl)cc2[nH]1)Nc1ccc2c(c1)CCC2`, the AC50 under setting [1] is 0.398 µM [falling, full curve, poor fit]. As for `COc1ccc(C(=O)N2CCCC(c3nc(-c4ccc(OC)c(OC)c4)no3)C2)c(OC)c1` (stereo unspecified), the half-maximal activity concentration (AC50) is 11.2 µM [rising, partial curve] under setting [1] and 14.1 µM [rising, partial curve] under setting [2]. Regarding `Nc1c(C(=O)NCc2ccco2)c2nc3ccccc3nc2n1CCc1ccc(F)cc1`, the AC50 under setting [1] was 14.1 µM [falling, single point]. In the case of `CC12COC3(C(=O)Nc4ccc(Cl)cc4)CC1CCC32C` (stereo unspecified), the AC50 is, setting by setting: under setting [1], 1.26 µM [rising, partial curve]; under setting [2], 14.1 µM [rising, single point].

Take `Cc1cccc(N=C2NC(=O)/C(=C/C=C/c3ccco3)S2)c1`: the AC50 under setting [2] was 15.8 µM [rising, single point]. As to `CNC(=O)/C(C#N)=C/c1c(N(Cc2ccccc2)Cc2ccccc2)nc2c(C)cccn2c1=O`, the half-maximal activity concentration (AC50) is 35.5 µM [rising, single point] under setting [1] and 35.5 µM [rising, partial curve] under setting [2].

For `COc1ccc(CNc2ncnc3onc(-c4ccc(F)cc4)c23)cc1`, the AC50 under setting [1] was 0.316 µM [rising, full curve, poor fit]. `CN(C)C(=O)COC(=O)c1ccccc1Nc1ccc(SC(F)F)cc1`: under setting [2], the half-maximal activity concentration (AC50) was 2.82 µM [rising, full curve]. Still for that read-out and setting: the value for `COc1ccc(C(=O)Nc2cccnc2)cc1S(=O)(=O)N1CCOCC1` was 0.00355 µM [falling, full curve, poor fit]. Regarding `COc1cccc(OC)c1C(=O)Nc1c(C)n(C)n(-c2ccccc2)c1=O`, under setting [1], the AC50 is 3.16 µM [falling, partial curve, poor fit]. As for `COc1cc(NC(=S)N2CCN(C(c3ccccc3)c3ccccc3)CC2)cc(OC)c1`, the concentration at half-maximal activity (AC50) is 35.5 µM [rising, single point] under setting [1] and 25.1 µM [rising, single point] under setting [2]. On to `Cn1c(SCC(=O)N2CCN(c3ccccc3)CC2)nnc1-c1ccccc1`, for which the AC50 under setting [1] is 14.1 µM [rising, partial curve] and the concentration at half-maximal activity (AC50) under setting [2] was 17.8 µM [rising, partial curve]. Turning to `CC(=O)c1ccc(NC(=O)c2sc(-n3nc(C)c(Cc4ccccc4)c3C)nc2C)cc1`, the concentration at half-maximal activity (AC50) reads like this: under setting [1], 0.891 µM [falling, full curve, poor fit]; under setting [2], 1.78 µM [falling, partial curve]. With `NNC(=O)c1oc2ccccc2c1-n1cccc1`, the concentration at half-maximal activity (AC50) under setting [1] is 0.0224 µM [falling, full curve, poor fit]. `CC(/C=N/NC(=O)Cn1cnc2ccccc21)=C\c1ccccc1`: the concentration at half-maximal activity (AC50) under setting [2] is 22.4 µM [rising, single point]. On to `COc1cccc(Cn2c(CNC(=O)c3cc([N+](=O)[O-])ccc3Cl)nc3cccnc32)c1`, for which the AC50 under setting [1] is 50.1 µM [falling, partial curve]. In the case of `CCNC(=O)C(Cc1ccccc1)NC(=O)OCc1ccccc1` (stereo unspecified), under setting [1], the AC50 was 0.0708 µM [rising, partial curve, poor fit]. For the compound `O=C(Cc1c(F)cccc1Cl)Nc1ncc([N+](=O)[O-])s1`, the AC50 runs as follows: under setting [1], 5.01 µM [falling, partial curve, poor fit]; under setting [2], 4.47 µM [falling, partial curve, poor fit].

Take `CC(C)=CC(=O)Nc1nnc(-c2ccccc2C)s1`: the AC50 under setting [2] was 0.00447 µM [rising, full curve, poor fit].

For the compound `Cc1nn(-c2ccc(F)cc2)c(C)c1NS(=O)(=O)c1ccc(Cl)cc1`, the concentration at half-maximal activity (AC50) was 28.2 µM [falling, single point] under setting [1] and 4.47 µM [falling, single point] under setting [2]. Consider `CCOC(=O)CN1C(=O)N[C@@H](c2ccccc2)[C@H](C(C)=O)[C@H]1C`, for which the concentration at half-maximal activity (AC50) under setting [1] is 0.891 µM [rising, single point]. Consider `COC(=O)/C(=C\C=C\c1ccccc1)NC(=O)c1ccccc1`, for which the AC50 under setting [2] was 0.141 µM [falling, single point]. As to `Cc1ccc(/C=N/Nc2ncc(Cl)cc2Cl)s1`, the AC50 under setting [1] was 12.6 µM [rising, single point] and the half-maximal activity concentration (AC50) under setting [2] was 14.1 µM [rising, single point]. Regarding `COC(=O)c1cccc(-c2ccc(/C=N/N3C(=O)C4C5C=CC(C6CC56)C4C3=O)o2)c1` (stereo unspecified), the AC50 by setting is: under setting [1], 31.6 µM [rising, single point]; under setting [2], 35.5 µM [rising, single point].

With `Cc1cccc(NC(=S)NNC(=O)c2ccc(O)cc2O)c1C`, the AC50 under setting [1] was 20 µM [falling, partial curve, poor fit]. `CCOC(=O)c1cccnc1`: the AC50 reads like this: under setting [1], 35.5 µM [falling, single point]; under setting [2], 0.000794 µM [rising, full curve, poor fit]. On to `Nc1ccc(N2CCN(c3ccc(F)cc3)CC2)cc1`, for which the AC50 under setting [1] is 3.98 µM [falling, partial curve].

In the case of `CN(C)CCOC(=O)COc1ccc(Cl)cc1`, the AC50 under setting [1] was 0.355 µM [falling, partial curve, poor fit]. The same measure, in the same setting: the value for `CCOC(=O)c1sc2ccc(S(=O)(=O)N3CC(C)CC(C)C3)cc2c1N` (stereo unspecified) was 0.282 µM [rising, full curve, poor fit]. Consider `CC(C)(C)C1=CC(=O)C(N2CCOCC2)=CC1=O`, for which, under setting [2], the half-maximal activity concentration (AC50) was 17.8 µM [rising, single point]. Still for that read-out and setting: then `CN1CCc2c(sc3c2C(=O)NC(c2cn(Cc4ccccc4)c4ccccc24)N3)C1` (stereo unspecified), with 12.6 µM [rising, single point]. Consider `Cc1c(C(=O)Oc2cccc3cccnc23)cccc1[N+](=O)[O-]`, for which the AC50 by setting is: under setting [1], 35.5 µM [falling, partial curve]; under setting [2], 22.4 µM [falling, partial curve].

`CN(C)c1ccc(-c2ccc3ncnc(N(C)C)c3c2)cc1`: the concentration at half-maximal activity (AC50) runs as follows: under setting [1], 0.631 µM [falling, full curve]; under setting [2], 0.562 µM [falling, full curve].

Turning to `O=C(Nc1cc(C(F)(F)F)ccc1Cl)c1cc(-c2ccc3c(c2)OCCO3)on1`, the AC50 under setting [2] was 0.0126 µM [falling, full curve, poor fit]. Regarding `COc1ccc(NC(=O)CCCCn2c(=O)[nH]c3ccccc3c2=O)cc1`, the half-maximal activity concentration (AC50) under setting [1] is 0.126 µM [falling, full curve, poor fit] and the half-maximal activity concentration (AC50) under setting [2] was 0.112 µM [falling, full curve, poor fit]. In the case of `Cc1ccc(NC(=S)NNC(=O)CSc2nc3ccccc3c(=O)n2-c2ccc(C)cc2)cc1`, the AC50 under setting [2] is 35.5 µM [rising, single point].

In the case of `Cc1cc(/C=N\NC(=O)c2cccs2)c(C)n1-c1ccc2ncccc2c1`, under setting [1], the AC50 was 35.5 µM [falling, single point]. For `O=C(NNc1ccccn1)C(=O)NNS(=O)(=O)c1ccc(Cl)cc1`, the half-maximal activity concentration (AC50) under setting [1] is 22.4 µM [falling, partial curve, poor fit]. As for `C=CCOc1c(Cl)cc(C2NC(=O)NC(C)=C2C(=O)OC)cc1Cl` (stereo unspecified), the AC50 under setting [2] is 35.5 µM [rising, single point].

In the case of `Cc1[nH]c2ccccc2c1SCCNC(=O)c1ccc(S(=O)(=O)N2CCCC2)cc1`, the AC50 is 12.6 µM [rising, partial curve, poor fit] under setting [1] and 25.1 µM [rising, partial curve] under setting [2].

In general, AC50 refers to the concentration giving half of the maximal activity seen.
